Data reported in patent US6613777B1, “CRF antagonistic pyrazolo[4,3-b]pyridines” (priority 1998, dated 2003).
Some of these results come from one statement about several compounds together.

These compounds were tested against T1, human CRF receptors (Homo sapiens, UniProt P34998) (assay: CRF receptor binding activity (radioligand binding assay)). Conditions: displacement of [125I] tyrosine-ovine CRF (approx. 200 pM); cells stably transfected with human CRF receptors; 2 hours at 22° C.
T1 construct: expressed in transfected cells
T1 sequence (P34998 24-415): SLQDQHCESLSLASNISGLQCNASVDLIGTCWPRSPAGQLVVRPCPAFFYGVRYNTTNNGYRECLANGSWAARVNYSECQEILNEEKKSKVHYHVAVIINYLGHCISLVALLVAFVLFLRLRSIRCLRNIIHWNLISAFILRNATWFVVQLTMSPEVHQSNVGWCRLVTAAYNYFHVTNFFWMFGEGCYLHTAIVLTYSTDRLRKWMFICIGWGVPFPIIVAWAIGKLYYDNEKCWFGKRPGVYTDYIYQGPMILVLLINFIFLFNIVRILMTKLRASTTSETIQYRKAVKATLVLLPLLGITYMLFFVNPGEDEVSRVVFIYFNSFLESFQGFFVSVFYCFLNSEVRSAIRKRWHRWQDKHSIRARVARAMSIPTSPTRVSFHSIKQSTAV

SMILES	Ki
COCCN(CC(C)C)c1cc(C)nc2c(-c3ccc(Cl)cc3Cl)nn(C)c12 [Compound 39]	≤ 250 nM
CCCN(CC1CC1)c1cc(C)nc2c(-c3ccc(Cl)cc3Cl)n[nH]c12 [Compound 22]	≤ 250 nM
CCCN(CC1CC1)c1cc(C)nc2c(-c3ccc(Cl)cc3Cl)nn(C)c12 [Compound 23]	≤ 250 nM
CCCCN(CCCC)c1cc(C)nc2c(-c3c(C)cc(C)cc3Cl)nn(CC)c12 [Compound 101]	≤ 250 nM
CCCCN(CCCC)c1cc(C)nc2c(-c3ccc(Cl)cc3Cl)n(C(C)C)nc12 [Compound 21]	≤ 250 nM
CCCC(COC)N(C)c1cc(C)nc2c(-c3ccc(Cl)cc3Cl)nn(C)c12 (stereo not drawn) [Compound 11]	≤ 250 nM
CCN(CCOC)c1cc(C)nc2c(-c3ccc(Cl)cc3Cl)nn(C)c12 [Compound 31]	≤ 250 nM
CCCCN(Cc1ccccc1)c1cc(C)nc2c(-c3ccc(Cl)cc3Cl)nn(C)c12 [Compound 51]	≤ 250 nM
CCCCN(Cc1ccc(O)cc1)c1cc(C)nc2c(-c3ccc(Cl)cc3Cl)nn(C)c12 [Compound 50]	≤ 250 nM
CCCCN(CCCC)c1cc(C)nc2c(-c3c(C)cc(C)cc3Cl)n[nH]c12 [Compound 97]	≤ 250 nM
CCCN(CCOC)c1cc(C)nc2c(-c3cccc4ccccc34)nn(C)c12 [Compound 122]	≤ 250 nM
CCN(CC)c1cc(C)nc2c(-c3ccc(C)cc3Cl)nn(C)c12 [Compound 92]	≤ 250 nM
CCN(CCCOC)c1cc(C)nc2c(-c3ccc(C)cc3Cl)nn(C)c12 [Compound 83]	≤ 250 nM
CCCCN(CCOC)c1cc(C)nc2c(-c3ccc(Cl)cc3Cl)nn(C)c12 [Compound 36]	≤ 250 nM
CCCCN(CCOC(C)C)c1cc(C)nc2c(-c3ccc(Cl)cc3Cl)nn(C)c12 [Compound 72]	≤ 250 nM
CCC1CCC(C)N(c2cc(C)nc3c(-c4ccc(Cl)cc4Cl)nn(C)c23)C1 (stereo not drawn) [Compound 116]	≤ 250 nM
CCCCN(CC)c1cc(C)nc2c(-c3ccc(C)cc3Cl)nn(C)c12 [Compound 76]	≤ 250 nM
CCCN(CC1CC1)c1cc(C)nc2c(-c3ccc(Cl)cc3Cl)n(C)nc12 [Compound 24]	≤ 250 nM
CCCCN(CCOc1ccccc1)c1cc(C)nc2c(-c3ccc(Cl)cc3Cl)nn(C)c12 [Compound 62]	≤ 250 nM
Cc1cc(N(CC(C)C)CC(C)C)c2c(n1)c(-c1ccc(Cl)cc1Cl)nn2C [Compound 53]	≤ 250 nM
CCN(CCCOC)c1cc(C)nc2c(-c3ccc(Cl)cc3Cl)nn(C)c12 [Compound 54]	≤ 250 nM
CCCCN(CCCC)c1cc(C)nc2c(-c3ccc(Cl)cc3Cl)n(C)nc12 [Compound 13]	≤ 250 nM
CCCCN(CCCC)c1cc(C)nc2c(-c3ccc(Cl)cc3Cl)n(CC)nc12 [Compound 17]	≤ 250 nM
C=C(C)CN(CC)c1cc(C)nc2c(-c3ccc(Cl)cc3Cl)n(C)nc12 [Compound 40]	≤ 250 nM
CCCCN(CC)c1cc(C)nc2c(-c3c(C)cc(C)cc3C)nn(C)c12 [Compound 121]	≤ 250 nM
CCCN(CCC)c1cc(C)nc2c(-c3ccccc3Cl)n(C)nc12 [Compound 106]	≤ 250 nM
CCCCN(CC)c1cc(C)nc2c(-c3c(C)cc(C)cc3Cl)n(CC)nc12 [Compound 99]	≤ 250 nM
